Data published in paper PMC12069552, “Root stem cell homeostasis in Arabidopsis involves cell-type specific transcription factor complexes” (EMBO Reports, 2025).
These are yes or no findings as the source states them, for the method shown. Binding seen in cells or lysates may run through a third protein. Some binding calls cover weakened binding; strength is not graded here.

Biological target: T1, WOX5-mV(N) (Arabidopsis thaliana) (UniProt Q8H1D2)
T1 sequence: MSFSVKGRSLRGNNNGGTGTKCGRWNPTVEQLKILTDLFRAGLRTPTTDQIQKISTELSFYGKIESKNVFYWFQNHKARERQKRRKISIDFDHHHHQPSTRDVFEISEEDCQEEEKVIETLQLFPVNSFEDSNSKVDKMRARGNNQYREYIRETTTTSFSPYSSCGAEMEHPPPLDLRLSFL
Assay: split reporter; reconstitution of mVenus fluorescence from mV(N) and mV(C) fusions co-expressed in N. benthamiana epidermal leaf cells, used as donor for FRET-FLIM

binding: binds
B1: BRAVO-mCherry (natural protein, Arabidopsis thaliana, UniProt Q6R053 1-323, looked up)
chain: MNPNLLEKDLRGKETTNGSIRYKEANNFRSLPNSHTAACKTSLNNPSISRNHPHNKSASVLESEDEHGNERGENEKSLRMRGKSGINTKVCSRGHWRPTEDAKLKELVAQFGPQNWNLISNHLLGRSGKSCRLRWFNQLDPRINKRAFTEEEEFRLLAAHRAYGNKWALISRLFPGRTDNAVKNHWHVIMARRTRESQRQRQQPPPTLSRDAEMTVSSSCRYNQGKFINEEDDDDDVSAVSTCTTELSLTPPSSAYQPRFFNYDSTLASGKDGQCVQRAEVNGIYGKKMDHQNHHTISVSERKVEMKMRSGYYYFDFLGVGAS
notes: BRAVO, R2R3-MYB transcription factor of Arabidopsis thaliana; the CDS amplified from cDNA; FRET acceptor; source: N. benthamiana abaxial epidermal leaf cells, transiently expressed (β-estradiol inducible), in cells
